# Assay results taken from PubChem BioAssay AID1347076 (National Center for Advancing Translational Sciences (NCATS), 2019).
# Hit rate of the full screen: of about 400,000 compounds, about 13,000 (3.2%) were called active. This list was built around the results that the source calls inconclusive (neither active nor inactive); the mix of calls is not that of the screen. Calls follow the shape of the dose curve; as a rule, active = well fitted cell-killing curve with a large enough effect; inconclusive = small, poorly fitted or top-dose-only effect, or effect the other way; inactive = flat fitted curve, though single readings scatter. A potency beside an inconclusive call is a rough fit, not a confirmed value. Some compounds were tested as several samples or in several runs, with calls that do not always agree.
# Assay: qHTS assay for MDR1-selective chemotherapeutics: Primary screen using the drug-selected MDR subline cells KB-V1; also: nearly all actives have a fitted effect of over 60% in size
# Conditions: KB-V1 MDR cells viability, CellTiter-Glo, 72 h; activity change, negative = cytotoxicity: at 46.1 µM (top of the series)
# How it was run: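 Compound-treated KB-V1 multidrug-resistant cells, 72 h, 37 degrees C; viability by CellTiter-Glo. Fitted qHTS curves give the values.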
# % is scaled to controls: 0 for no effect and ±100 for the full control effect; potency is read from the fitted curve at half-maximal effect.
Compound,"activity change, negative = cytotoxicity",Potency
COC(=O)CC1Oc2ccccc2-n2cc(-c3ccc(Cl)cc3)nc21 (stereo not given),inactive: -7.84%,–
COc1cccc(NC(=O)CN(c2ccc(C)cc2)S(=O)(=O)c2c(C)nn(C)c2C)c1,–,"inconclusive: 4.61 µM [cytotoxic, partial curve]"
CCOC(=O)Nc1ccc2c(c1)C(=NNC(=S)NC)c1ccccc1-2,–,"inconclusive: 13 µM [cytotoxic, partial curve, poor fit]"
CCCn1nnc(NC(=O)c2cc(Br)cc(Br)c2OC)n1,–,active: 16.4 µM
C=CCn1c(CSCc2ccccc2)nnc1SCC(=O)N1CCN(c2ccccc2)CC1,–,active: 10.3 µM
CC(C)c1c(C(=O)N/N=C/c2ccsc2)nnn1-c1nonc1N,–,"inconclusive: 29.1 µM [rising, single point]"
CCCCN(CCCC)CC(O)CN(c1cc([N+](=O)[O-])ccc1OC)S(=O)(=O)c1ccccc1 (stereo not given),–,active: 2.59 µM
CCOC(=O)C1=CN(Cc2cccc(F)c2)S(=O)(=O)N(CC)C1c1ccccc1 (stereo not given),–,"inconclusive: 5.8 µM [cytotoxic, partial curve, poor fit]"
CC(O/N=C/c1ccccc1OC(F)F)C(=O)Nc1cccc(S(=O)(=O)N2CCOCC2)c1 (stereo not given),–,active: 13 µM
COc1ccc(C(C)=O)c(OCC(=O)NCCC2=CCCCC2)c1,–,"inconclusive: 23.1 µM [cytotoxic, single point]"
NC(=S)N/N=C/c1cccc(Br)c1,–,active: 8.2 µM
CCOc1ccc(CNC(=O)CCC(=O)N2Cc3cccc(OC)c3Oc3ncccc32)cc1,–,"inconclusive: 29.1 µM [rising, single point]"
COc1ccc(CCN(C)C(=O)C(CCSC)NC(=O)c2ccco2)cc1OC (stereo not given),–,"inconclusive: 29.1 µM [cytotoxic, partial curve, poor fit]"
O=C(CCSCCc1ccccn1)Nc1c(F)c(F)c(F)c(F)c1F,–,"inconclusive: 11.6 µM [cytotoxic, partial curve]"
Cc1cccc(NC(=O)COC(=O)Cc2cccs2)c1C,–,"inconclusive: 20.6 µM [rising, single point]"
O=C(NCCC1CCCCN1S(=O)(=O)c1ccccc1)C(=O)Nc1ccc(F)cc1 (stereo not given),–,"inconclusive: 29.1 µM [cytotoxic, single point]"
COc1ccccc1Cc1c(-c2ccccc2)nc2c(C)cc(Br)cn12,–,"inconclusive: 18.4 µM [cytotoxic, single point]"
Cc1ccc(C(=O)CC2(O)C(=O)N(CN3CCOCC3)c3ccccc32)cc1 (stereo not given),–,"inconclusive: 29.1 µM [rising, single point]"
CCOC(=O)c1c(NC(=S)NC(C)=O)sc(C)c1C,inactive: -14.1%,–
O=C(Cc1ccc([N+](=O)[O-])cc1)NNC(=O)c1ccc2c(c1)OCO2,–,"inconclusive: 29.1 µM [rising, single point]"
COc1ccc(C(=O)NC(=S)Nc2nnn(C)n2)cc1,inactive: -2.59%,–
O=C(CCNC(=O)c1ccc([N+](=O)[O-])cc1)Nc1cc(C(F)(F)F)ccc1N1CCOCC1,–,"inconclusive: 18.4 µM [cytotoxic, partial curve, poor fit]"
COc1ccc(C2CC(c3ccc(Cl)cc3)=NN2c2ccc(S(N)(=O)=O)cc2)cc1 (stereo not given),inactive: -21%,–
Cc1ccc2nc(Cl)c(/C=N/NC(=O)c3ccccc3O)cc2c1,inactive: -15.8%,–

# Full records from above:
# NC(=S)N/N=C/c1cccc(Br)c1 is listed as Potency: active: 8.2 µM
# CC(C)c1c(C(=O)N/N=C/c2ccsc2)nnn1-c1nonc1N is listed as Potency: inconclusive: 29.1 µM [rising, single point]
# CCOC(=O)C1=CN(Cc2cccc(F)c2)S(=O)(=O)N(CC)C1c1ccccc1 (stereo not given) is listed as Potency: inconclusive: 5.8 µM [cytotoxic, partial curve, poor fit]

# Following part.

Compound,"activity change, negative = cytotoxicity",Potency
CN1CCN(CC#CCC2(O)c3ccccc3-c3ccccc32)CC1,–,"inconclusive: 23.1 µM [rising, single point]"
COC(=O)C1=COC(C)C2CN3CCc4c([nH]c5cc(OC)c(OC)cc45)C3CC12 (stereo not given),inactive: 4.7%,–
CCOC(=O)c1c(NC(=O)c2cc(-c3ccc(OC)cc3)on2)sc(C)c1C,inactive: -0.425%,–
CCOC(=O)c1cc(C#N)c(SCc2ccc(C#N)cc2)nc1C,–,active: 2.31 µM
CCC/C=C/c1ccc(CN2C(CC(C)C)C(=O)N(Cc3cn(Cc4ccco4)nn3)CCS2(=O)=O)cc1 (stereo not given),–,"inconclusive: 29.1 µM [cytotoxic, single point]"
O=C(NCc1ccccc1CN1CCCC1)c1cc2cc(Cl)ccc2o1,–,"inconclusive: 23.1 µM [cytotoxic, partial curve, poor fit]"
Cc1ccc(-n2nc3c(=O)n(CC(=O)NC(C)CCc4ccccc4)nc(C)c3c2C)cc1 (stereo not given),–,"inconclusive: 3.26 µM [cytotoxic, full curve]"
CC(C)(C)C1C/C(=C/c2ccccn2)C(=O)/C(=C/c2ccccn2)C1 (stereo not given),–,"inconclusive: 1.16 µM [cytotoxic, full curve, poor fit]"
COc1ccc(CN2C(=O)CSCC2(C)C(=O)NCc2ccccc2)cc1OC (stereo not given),–,"inconclusive: 18.4 µM [cytotoxic, single point]"
S=C1NC(c2cccs2)=CC(c2ccc(Br)cc2)N1 (stereo not given),–,"inconclusive: 29.1 µM [cytotoxic, single point]"
O=C(CSc1nnc(Nc2ccccc2F)s1)Nc1cccc(S(=O)(=O)N2CCCCC2)c1,inactive: -22.6%,–
CCOc1ccc(CCNC(=O)c2ccc(F)c(S(=O)(=O)N3CCOCC3)c2)cc1OCC,–,"inconclusive: 6.51 µM [cytotoxic, partial curve]"
Cc1ccc(C(=O)COC(=O)CCC(=O)Nc2ccc(Oc3ccccc3)cc2)cc1C,–,"inconclusive: 29.1 µM [rising, single point]"
O=C(C[C@H]1C(=O)N(CCc2ccccc2)C[C@@H]1Cc1ccccc1)Nc1ccccc1,–,active: 20.6 µM
COc1ccc(/C=C/C(=O)Nc2ccc3c(c2)OCCO3)cc1OC,–,active: 20.6 µM
CC1C(=O)C(C)C(c2cc(Br)ccc2O)NC1c1cc(Br)ccc1O (stereo not given),–,"inconclusive: 29.1 µM [cytotoxic, single point]"
O=C(CSc1ccccc1)N1CCN(c2ccccc2)CC1,–,"inconclusive: 23.1 µM [cytotoxic, partial curve, poor fit]"
CCN(CC)C(=O)NC(c1ccc(C)c(F)c1)C(Cl)(Cl)Cl (stereo not given),–,"inconclusive: 16.4 µM [cytotoxic, single point]"
CCCC(=O)N1CCN(c2ccc(NC(=S)NC(=O)c3cccc(C)c3)cc2)CC1,–,"inconclusive: 1.64 µM [cytotoxic, full curve]"
O=C(NCc1ccccn1)c1ccc(Cl)c(S(=O)(=O)NCc2ccccc2)c1,inactive: 15.5%,–
CCCCCC(=O)Nc1cccc(-c2nc3ncccc3o2)c1,–,"inconclusive: 11.6 µM [cytotoxic, partial curve]"
CCOc1cc(C2c3c(-c4ccccc4O)n[nH]c3C(=O)N2CCc2ccccc2)ccc1O (stereo not given),inactive: 2.64%,–
Cc1ccc(OCCN2CCC2(C)C(=O)NCc2cccc3ccccc23)cc1 (stereo not given),–,"inconclusive: 25.9 µM [cytotoxic, single point]"
Cc1cccc(NCC(=O)N/N=C\c2ccccn2)c1,–,"inconclusive: 29.1 µM [cytotoxic, single point]"

Compound,"activity change, negative = cytotoxicity",Potency
O=C(NCc1cccc(C(F)(F)F)c1)c1ccc2sc([C@H]3C[C@H](O)[C@@H](CO)O3)nc2c1,inactive: 1.3%,–
CCc1ccc(C2c3c(oc4ccc(C)cc4c3=O)C(=O)N2c2nc(C)c(C)s2)cc1 (stereo not given),inactive: -0.748%,–
COc1ccccc1-n1c(C)c(C(C)=O)c2cc(O)ccc21,–,"inconclusive: 20.6 µM [cytotoxic, partial curve, poor fit]"
O=C1CCC(C(=O)Nc2cc(C(F)(F)F)ccc2-n2cncn2)=NN1,inactive: 0%,–
CCOc1ccc(S(=O)(=O)NCc2cccnc2)cc1NC(=O)c1ccccc1F,–,"inconclusive: 2.31 µM [cytotoxic, full curve, poor fit]"
CCc1nnc(NC(=O)CN2CCN(Cc3ccccc3C)CC2)s1,inactive: 1.1%,–
COc1ccc(N2C(=O)NC3CC2(C)Oc2ccc(Cl)cc23)cc1OC (stereo not given),–,"inconclusive: 29.1 µM [cytotoxic, single point]"
CC(C)CNc1cc(N2CCCC2)ccc1[N+](=O)[O-],–,"inconclusive: 29.1 µM [cytotoxic, single point]"
C[C@H](CO)N1C[C@H](C)[C@H](CN(C)S(=O)(=O)c2cccc(F)c2)Oc2cc(Br)ccc2S1(=O)=O,inactive: -11%,–
O=C(NNc1c(Cl)cc(Cl)cc1Cl)C1CCC1,inactive: -13.6%,–
O=C(Nc1ccc(F)cc1F)c1ccc(-n2cnnc2)cc1,inactive: 23.7%,–
Cc1noc(C)c1C(=O)N1CCc2ccccc21,–,"inconclusive: 23.1 µM [cytotoxic, partial curve, poor fit]"
O=C(CN1C(=O)c2cccc3cccc(c23)C1=O)N1CCN(c2ccccn2)CC1,–,"inconclusive: 7.31 µM [cytotoxic, partial curve]"
CCNS(=O)(=O)c1ccc(NC(=S)NCc2ccco2)cc1,inactive: -18.7%,–
Cc1cccc(NC(=O)CSc2cc(C)c3ccccc3n2)c1,–,"inconclusive: 29.1 µM [cytotoxic, single point]"
COc1cc(C(=O)N/C(=C\c2cn(C)c3ccccc23)C(=O)N2CCN(C)CC2)cc(OC)c1OC,–,"inconclusive: 29.1 µM [rising, single point]"
c1ccc2c(c1)sc[n+]2CCC1CCCCC1,inactive: -12.4%,–
CC1(C(=O)Nc2ccc3c(c2)OCO3)Cc2c(-c3cccc(C(F)(F)F)c3)ccnc2O1 (stereo not given),–,"inconclusive: 23.1 µM [cytotoxic, single point]"
Cc1cc(-n2c(C)nc3ccccc3c2=O)ccc1NC(=O)c1cccc([N+](=O)[O-])c1,inactive: -1.09%,–
COc1ccc(C(=O)NC(C)C2CC3CCC2C3)c(OC)c1 (stereo not given),inactive: 3.59%,–
COC(=O)C1=C(C(=O)OC)C(C(=O)OC)C(C(=O)OC)C(C(=O)OC)(C(=O)OC)C(C(=O)OC)=C1C(=O)OC (stereo not given),–,"inconclusive: 23.1 µM [cytotoxic, single point]"
CCc1cccc(N=c2c([N+](=O)[O-])nn(-c3ccc(Cl)cc3)n2O)c1,–,"inconclusive: 29.1 µM [cytotoxic, single point]"
